Results taken from PubChem BioAssay AID1688 (National Center for Advancing Translational Sciences (NCATS), 2009).
The campaign covered roughly 220,000 compounds. About 2,400 (1.1%) were called active. The inconclusive results got no clear call from the source; some entries with a clear call stand among them for comparison. Calls follow the shape of the dose curve; as a rule, active = well fitted inhibition curve with a large enough effect; inconclusive = small, poorly fitted or top-dose-only effect, or effect the other way; inactive = no such curve, though single readings can be large or run the other way. Where the call is inconclusive, the potency comes from a doubtful curve fit.

Experiment: qHTS Multiplex Assay to Identify Dual Action Probes in a Cell Model of Huntington: Aggregate Formation (GFP); also: nearly all actives have a fitted effect of over 60% in size
Settings: PC12 HttQ103-GFP aggregates, Acumen cytometry, 40 h; activity change, negative = inhibition: at 46.1 µM (top of the series) unless noted
In short: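 Steps: seed 1500 PC12 HTTQ103-GFP cells/well; add tebufenozide, 100 nM final; add compound titration; add ATPLite reagent; quantify GFP aggregates by laser scanning cytometry.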
% is scaled to controls: 0 for no effect and ±100 for the full control effect; potency is read from the fitted curve at half-maximal effect.

**Q.** With `CCn1c(=O)c(C(=O)Nn2c(C)nc3ccccc3c2=O)c(O)c2ccccc21` as the molecule, how does the Potency read?
**A.** The Potency was inconclusive: 11.2 µM [inhibitor, partial curve].

**Q.** With `O=C1CCC(=O)N1OCCCOc1ccc(Br)cc1Cl` as the molecule, how does the “activity change, negative = inhibition” value read?
**A.** Its value is inactive: -6.79%.

**Q.** Which Potency does the source give for `Cn1nc(C(C)(C)C)cc1C(=O)NCc1ccc(N2CCCC2=O)cc1` here?
**A.** The Potency was active: 1.78 µM.

**Q.** With `O=S(=O)(NCCSc1nnnn1-c1ccccc1)c1cccs1` as the molecule, how does the “activity change, negative = inhibition” value read?
**A.** The value was inactive: 1.54%.

**Q.** Which Potency does the source give for `Cc1ccc(C)c(CSc2nnc(C)c(=O)[nH]2)c1` here?
**A.** The Potency was inconclusive: 1.12 µM [activator, full curve, poor fit].

**Q.** For `CCCSc1nc(NCc2ccco2)c2c3c(sc2n1)COC(C)(C)C3`, which Potency is on record?
**A.** Its Potency is inconclusive: 35.5 µM [inhibitor, single point].

**Q.** For `O=C1c2ccccc2C(=O)c2cc(S(=O)(=O)Nc3ccccc3)ccc21`, which Potency is on record?
**A.** Its Potency is inconclusive: 11.2 µM [inhibitor, single point].

**Q.** For `COc1ccc(S(=O)(=O)N2CN(Cc3ccco3)c3nc4ccccc4nc32)cc1`, which Potency is on record?
**A.** The Potency was inconclusive: 15.8 µM [activator, single point].

**Q.** Which Potency does the source give for `COc1ccc2c(=O)c(Oc3ccc(C(=O)O)cc3)c(C(F)(F)F)oc2c1` here?
**A.** Its Potency is inconclusive: 7.08 µM [activator, partial curve].

**Q.** Which “activity change, negative = inhibition” value does the source give for `OC(c1ccccc1)c1nc2ccccc2s1` (stereo not given) here?
**A.** Its value is inactive: -5.57%.

**Q.** With `c1ccc(N2CCN(c3nc(NCc4ccco4)c4ccccc4n3)CC2)cc1` as the molecule, how does the Potency read?
**A.** The Potency was inconclusive: 11.2 µM [inhibitor, single point].

**Q.** Which Potency does the source give for `O=c1oc2ccccc2cc1-c1csc(Nc2ccc(O)cc2)n1` here?
**A.** Its Potency is inconclusive: 2.51 µM [activator, full curve, poor fit].

**Q.** Which Potency does the source give for `Cc1ccc(-c2nnc(SCC(=O)N/N=C/c3c(C)nn(-c4ccccc4)c3C)n2-c2ccccc2)cc1` here?
**A.** Its Potency is inconclusive: 25.1 µM [inhibitor, single point].

**Q.** Which “activity change, negative = inhibition” value does the source give for `O=C(NCc1ccco1)C1CCC(CNS(=O)(=O)c2cccc3cccnc23)CC1` (stereo not given) here?
**A.** The value was inactive: 30.7%.

**Q.** With `O=C(N/N=C/c1cc(Br)ccc1O)C(=O)Nc1ccccc1OC(F)(F)C(F)F` as the molecule, how does the Potency read?
**A.** The Potency was active: 8.91 µM.

**Q.** For `Cc1ccc(CNc2nc3c([nH]2)c(=O)n(C)c(=O)n3C)cc1`, which “activity change, negative = inhibition” value is on record?
**A.** The value was inactive: -19.7%.

**Q.** With `COc1ccc(Cn2c(SCc3cc(C)ccc3C)nc3cc(OC)c(OC)cc3c2=N)cc1` as the molecule, how does the Potency read?
**A.** Its Potency is active: 3.16 µM.

**Q.** Which Potency does the source give for `CCCc1n[nH]c2c1/C(=N\O)CCC2` here?
**A.** Its Potency is inconclusive: 3.55 µM [activator, single point].

**Q.** Which “activity change, negative = inhibition” value does the source give for `CCOc1cc(CNc2ccccc2)cc(Br)c1OCc1ccc(F)cc1` here?
**A.** Its value is inactive: -23.2%.

**Q.** For `CC(=O)N(C(C)=O)c1ncnc2c1c(-c1ccc(Cl)cc1)nn2C(C)(C)C`, which Potency is on record?
**A.** Its Potency is inconclusive: 35.5 µM [inhibitor, single point].
